Here are results for 4 molecules from PMC8961175.

Protein sequences, listed by entry. Tags and fused reporters are not part of them. Residues count along the entry.
UniProt Q9NZQ7, residues 19-290: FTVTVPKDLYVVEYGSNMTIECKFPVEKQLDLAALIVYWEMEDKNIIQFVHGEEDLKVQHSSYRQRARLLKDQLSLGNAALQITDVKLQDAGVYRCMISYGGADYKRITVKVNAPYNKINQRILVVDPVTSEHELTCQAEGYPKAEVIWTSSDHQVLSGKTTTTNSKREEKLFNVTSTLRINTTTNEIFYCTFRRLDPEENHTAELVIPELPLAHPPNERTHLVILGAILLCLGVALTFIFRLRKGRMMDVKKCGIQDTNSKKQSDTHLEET
UniProt P49841: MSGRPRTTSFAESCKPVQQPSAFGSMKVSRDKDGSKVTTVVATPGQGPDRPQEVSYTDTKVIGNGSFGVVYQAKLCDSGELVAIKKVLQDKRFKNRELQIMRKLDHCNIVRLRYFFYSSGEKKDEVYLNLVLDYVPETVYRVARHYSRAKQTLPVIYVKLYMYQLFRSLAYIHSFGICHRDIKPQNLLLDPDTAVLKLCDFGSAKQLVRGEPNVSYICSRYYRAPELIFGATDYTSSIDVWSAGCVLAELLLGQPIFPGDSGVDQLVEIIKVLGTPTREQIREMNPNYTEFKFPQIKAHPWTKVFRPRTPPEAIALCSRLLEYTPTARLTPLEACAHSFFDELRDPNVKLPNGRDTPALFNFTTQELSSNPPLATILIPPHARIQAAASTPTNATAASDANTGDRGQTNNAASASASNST

Results are given in words; binding and its absence hold for the method and conditions named. In cells and extracts the contact can be indirect. Some results given as binding are weak or reduced against the parent protein; the word gives no strength. For some of these results: Where a sequence is shown, tags or fusion partners need not be part of it.

The target of experiment [1] is T1, Flag-eEF2K (eukaryotic elongation factor 2 kinase) (UniProt O00418).
T1 sequence: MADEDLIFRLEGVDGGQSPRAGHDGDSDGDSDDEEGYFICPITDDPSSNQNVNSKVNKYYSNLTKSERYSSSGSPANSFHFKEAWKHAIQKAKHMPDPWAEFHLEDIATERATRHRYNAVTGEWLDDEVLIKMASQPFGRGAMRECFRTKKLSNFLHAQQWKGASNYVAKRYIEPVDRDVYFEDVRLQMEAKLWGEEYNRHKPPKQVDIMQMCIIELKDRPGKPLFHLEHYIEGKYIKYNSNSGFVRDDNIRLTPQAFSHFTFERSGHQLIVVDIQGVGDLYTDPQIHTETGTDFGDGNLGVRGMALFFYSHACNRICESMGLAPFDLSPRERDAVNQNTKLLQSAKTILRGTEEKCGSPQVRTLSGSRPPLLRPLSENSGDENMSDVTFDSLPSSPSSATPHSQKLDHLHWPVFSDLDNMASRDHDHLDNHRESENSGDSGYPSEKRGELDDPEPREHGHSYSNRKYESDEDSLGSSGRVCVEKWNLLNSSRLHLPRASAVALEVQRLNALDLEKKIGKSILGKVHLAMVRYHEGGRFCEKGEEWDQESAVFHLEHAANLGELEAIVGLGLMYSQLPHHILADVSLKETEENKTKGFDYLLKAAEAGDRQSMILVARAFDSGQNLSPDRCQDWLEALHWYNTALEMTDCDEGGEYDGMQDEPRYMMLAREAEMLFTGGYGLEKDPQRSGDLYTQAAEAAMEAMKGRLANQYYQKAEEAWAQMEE
Kind of experiment: co-IP; HEK293T cells transfected with Flag-eEF2K and HA-GSK3β plasmids; immunoprecipitation with anti-Flag or anti-HA antibodies, then blot; RIPA buffer, 4°C overnight.

Experiment [2] addresses T2, purified recombinant GST-eEF2K (UniProt O00418).
T2 sequence: T1 sequence
Kind of experiment: pull-down; purified GST or GST-eEF2K from bacteria on glutathione-sepharose 4B beads, incubated with GSK3β for 4 hours at 4°C; washed four times with GST binding buffer; blot.

Experiment [3] has as its target T3, eukaryotic elongation factor 2 kinase (eEF2K), endogenous in A375 cells (human (endogenous in A375)) (UniProt O00418).
T3 sequence: T1 sequence
Kind of experiment: co-IP; endogenous proteins in A375 cells; immunoprecipitation with the indicated antibodies, then blot; RIPA buffer, 4°C overnight.

The target in experiment [4] is HA-PD-L1 (programmed death ligand-1) (UniProt Q9NZQ7). Briefly: co-IP; cell lysate precipitated with antibody against HA, blotted for eEF2K (Figure S2); RIPA lysis buffer, protein A/G agarose, 4°C overnight.

As for “HA-GSK3β (glycogen synthase kinase 3 beta) (from UniProt P49841 1-420) (enzyme)”, the binding entry in experiment [1] is “binds”.

As for “GSK3β used in the GST pulldown assay (from UniProt P49841 1-420) (enzyme)”, the binding result in experiment [2] is listed as “binds”. Take “glycogen synthase kinase 3 beta (GSK3β), endogenous in A375 cells (from UniProt P49841 1-420) (enzyme)”: the binding entry in experiment [3] is reported as “binds”.

B1: eEF2K tested for co-precipitation with HA-PD-L1 (Figure S2) (enzyme, UniProt O00418 1-725)
chain: T1 sequence
Regarding B1, the binding entry in experiment [4] is “no binding”.
